# Data as given in PubChem BioAssay AID504834 (National Center for Advancing Translational Sciences (NCATS), 2011).
# Screen size: about 320,000 compounds; about 22,000 (6.9%) were called active. The inconclusive results got no clear call from the source; some entries with a clear call stand among them for comparison. Calls follow the shape of the dose curve; as a rule, active = well fitted inhibition curve with a large enough effect; inconclusive = small, poorly fitted or top-dose-only effect, or another doubt; inactive = no such curve, though single readings can be large or run the other way. Potencies of inconclusive entries are doubtful fits and often do not repeat.
# Assay: Primary qHTS for delayed death inhibitors of the malarial parasite plastid, 96 hour incubation
# Settings: P. falciparum luciferase reporter growth; series mostly up to 28.7 µM
# How it was run: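 Cell-based qHTS: luciferase-tagged P. falciparum in erythrocytes (2% hematocrit, 0.05% parasitemia final) incubated with compounds for 96 hours, 37 C, 5% CO2; luciferase detection reagent then added and luminescence measured.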
# Potency is read from the fitted curve at half-maximal effect.
row,Structure (SMILES),Potency
1,CCc1cccc(Nc2cc(C)nc3ncnn23)c1,"inconclusive: 3.7 µM [inhibitor, full curve, poor fit]"
2,O=[N+]([O-])c1ccc(/C=N/n2c(-c3cccnc3)n[nH]c2=S)cc1,"inconclusive: 9.28 µM [inhibitor, single point]"
3,CCc1ccc(OCC(=O)N/N=C(\C)c2ccccc2OC(F)F)cc1,"inconclusive: 13.1 µM [inhibitor, single point]"
4,CCC(C)OC(=O)C1=C(C)NC2=C(C(=O)C(C(=O)OC)C(C)C2)C1c1ccc(N(C)C)cc1 (configuration not stated),"inconclusive: 11.7 µM [inhibitor, partial curve, poor fit]"
5,CC(C)(C)[C@@H]1C=C(C(=O)Nc2ccccc2)O[C@H](OCc2ccc(CO)cc2)C1,active: 8.28 µM
6,COc1cc(-c2nnc3n2N=C(c2ccccc2)CS3)cc(OC)c1OC,"inconclusive: 10.4 µM [inhibitor, partial curve, poor fit]"
7,O=C1CN(S(=O)(=O)c2ccccc2)CC(=O)N1CCc1ccccc1,inactive
8,COc1cccc(N=Nc2c(O)[nH]c(=S)[nH]c2=O)c1,"inconclusive: 0.0329 µM [inhibitor, full curve, poor fit]"
9,COc1cc(Cn2cnnn2)ccc1O,"inconclusive: 18.5 µM [inhibitor, single point]"
10,COC(=O)C1=C(c2ccc(C(C)=O)cc2)C[C@@H]2CC[C@H]1N2C(=O)NCc1ccc(F)cc1,"inconclusive: 16.5 µM [inhibitor, single point]"
11,CC(C)(C)NC(=O)C(OC(=O)c1cccs1)c1ccccc1 (configuration not stated),inactive
12,COc1ccc(Nc2cc(C(=O)NCCCN3CCN(C)CC3)c3ccccc3n2)cc1OC,inactive
13,COc1ccc2c(CN3CC=C(c4ccccc4)CC3)cc(=O)oc2c1,"inconclusive: 11.7 µM [inhibitor, partial curve]"
14,CC(c1ccccc1)n1c(-c2ccc(Cl)cc2)n[nH]c1=S (configuration not stated),"inconclusive: 10.4 µM [inhibitor, single point]"
15,O=C(/C=C/c1ccco1)Nc1ccccc1C(=O)O,"inconclusive: 0.0037 µM [inhibitor, full curve, poor fit]"
16,O=S(=O)(NC1CCCCCCC1)c1ccccc1,"inconclusive: 18.5 µM [inhibitor, single point]"
17,C#CCOCCOCCOCCNc1nc(N2CCN(C(=O)Cn3cc(CCCN=C(N)N)nn3)CC2)nc(N2CCN(C(=O)[C@H](C(C)C)n3cc(CCO)nn3)CC2)n1,"inconclusive: 18.5 µM [inhibitor, single point]"
18,O=C(CSc1nc2ccccc2[nH]1)Nc1ccc2[nH]c(=O)[nH]c2c1,inactive
19,CCOc1ccc2oc(C(=O)OC(C(=O)NC(N)=O)C(C)C)c(C)c2c1 (configuration not stated),inactive
20,Nc1c(C(=O)Nc2ccc(Cl)cc2)oc2ccccc12,inactive
21,CCCc1nc(SCC(=O)NNC(=O)c2ccc(OC)cc2)c2ccccc2n1,inactive
22,Cc1cc(C)cc(NC(=O)CSc2nnc(Cc3cccn3C)n2-c2ccc(F)cc2)c1,"inconclusive: 2.33 µM [inhibitor, full curve]"
23,O=C(NC(=S)NCc1cccnc1)c1ccccc1F,inactive

row,Structure (SMILES),Potency
1,CCN1C(=O)/C(=C/N2CCc3ccccc32)SC1=S,inactive
2,Cc1nc(CCNC(=O)CC2C(=O)NCCN2CC(C)C)nc2c1CCC2 (configuration not stated),"inconclusive: 0.0828 µM [inhibitor, full curve, poor fit]"
3,COC(=O)COc1ccc2c(=O)c(-c3ccccc3OC)coc2c1,"inconclusive: 10.4 µM [inhibitor, partial curve, poor fit]"
4,O=C(c1ccoc1)N1CCCC(N2CCN(c3cccc(Cl)c3)CC2)C1 (configuration not stated),inactive
5,CCC(C)N(C(=O)Cn1nnc2ccccc21)C(C(=O)Nc1ccc(F)cc1)c1cccc(OC)c1 (configuration not stated),active: 10.4 µM
6,CCOc1ccc(OCC)c(NC(=O)CSc2nc3ccccc3c(=O)n2C)c1,"inconclusive: 0.415 µM [inhibitor, full curve, poor fit]"
7,CC(=O)c1cccc(OC(=O)C2=CC=CN3CCS(=O)(=O)N=C23)c1,"inconclusive: 18.5 µM [inhibitor, single point]"
8,CC(=O)c1ccc(NC(=O)C2CCC(C)(C(=O)O)C2(C)C)cc1 (configuration not stated),"inconclusive: 18.5 µM [inhibitor, single point]"
9,Cc1cccc(NC(=O)CCN2C(=O)c3cccc([N+](=O)[O-])c3C2=O)c1,"inconclusive: 18.5 µM [inhibitor, single point]"
10,COc1ccc(NC(=S)NC(NC(=O)c2cccc(Cl)c2)C(Cl)(Cl)Cl)c([N+](=O)[O-])c1 (configuration not stated),"inconclusive: 18.5 µM [inhibitor, partial curve, poor fit]"
11,COc1ccc(Cl)cc1NC(=O)Cn1c(C)csc1=O,"inconclusive: 10.4 µM [inhibitor, partial curve]"
12,O=C1N(Cc2cccnc2)C[C@@H]2C[C@@H](c3cccc(C(F)(F)F)c3)N3CCC[C@@]123,active: 10.4 µM
13,Cc1ccccc1NC(=O)COC(=O)/C=C/c1cccc(C(F)(F)F)c1,inactive
14,CCn1c(=O)n(CC(=O)NCC2CCCO2)c(=O)c2c3c(sc21)COC(C)(C)C3 (configuration not stated),"inconclusive: 1.04 µM [inhibitor, partial curve, poor fit]"
15,CC(C)C(=O)N1CCN(c2ccccc2NC(=O)c2cccc(Cl)c2)CC1,"inconclusive: 11.7 µM [inhibitor, single point]"
16,CCOC(=O)N1CCN(S(=O)(=O)c2ccc(C(=O)N(CCCN(C)C)c3nc4ccc(CC)cc4s3)cc2)CC1,"inconclusive: 8.28 µM [inhibitor, partial curve]"
17,COc1ccc(NC(=O)C(F)(F)F)cc1OC,inactive
18,Oc1ccc(N2CCN(Cc3c(-c4ccccc4)nc4ccccn34)CC2)cc1,"inconclusive: 14.7 µM [inhibitor, partial curve, poor fit]"
19,O=C(CCN1C(=O)/C(=C/c2ccccc2Cl)SC1=S)N1CCCC1,"inconclusive: 9.28 µM [inhibitor, partial curve]"
20,CC(CCN(C)C)OC(=O)c1ccc(C(C)c2ccccc2)o1 (configuration not stated),"inconclusive: 3.29 µM [inhibitor, partial curve]"
21,COc1ccccc1OC(C)C(=O)Nc1ccc(S(=O)(=O)Nc2nccs2)cc1 (configuration not stated),inactive
22,COc1ccccc1CNC(=O)CCS(=O)(=O)c1ccc2c(c1)CCCN2C(C)=O,"inconclusive: 7.38 µM [inhibitor, partial curve]"
23,CC1CSc2nnc(CCc3ccccc3)n21 (configuration not stated),inactive

row,Structure (SMILES),Potency
1,CCOc1ccc(NC(=S)NNC(=O)CC(C)O)cc1 (configuration not stated),"inconclusive: 18.5 µM [inhibitor, single point]"
2,O=C(Nc1cnn(Cc2ccc(F)cc2)c1)c1cc2nc(-c3ccco3)cc(C(F)(F)F)n2n1,active: 10.4 µM
3,CC(C)CN(C(=O)COC(=O)CSc1ccc([N+](=O)[O-])cc1)C1CCS(=O)(=O)C1 (configuration not stated),inactive
4,O=[N+]([O-])c1ccccc1CN1CCN(Cc2ccc3ccccc3c2)CC1,"inconclusive: 18.5 µM [inhibitor, single point]"
5,CCNS(=O)(=O)c1ccc(CCC(=O)NCc2cccnc2)cc1,"inconclusive: 0.415 µM [inhibitor, partial curve, poor fit]"
6,O=C(c1ccc(F)cc1)[C@@H]1[C@@H](C(=O)c2ccccc2)[C@@]2(C(=O)Nc3ccccc32)[C@H]2c3ccccc3C=CN12,active: 5.22 µM
7,CS(=O)(=O)N1CCCC(C(=O)N2CCC3(CC2)OCCO3)C1 (configuration not stated),"inconclusive: 11.7 µM [inhibitor, single point]"
8,CCOc1ccc(-c2nnn(CC(=O)NCc3ccc4c(c3)OCO4)n2)cc1,"inconclusive: 14.7 µM [inhibitor, partial curve, poor fit]"
9,Cc1ccc(NC(=S)N(CCN(C)C)Cc2cccs2)c(C)c1,"inconclusive: 16.5 µM [inhibitor, single point]"
10,CCOC(=O)[C@H]1[C@H]2COc3ccc(C)cc3[C@@H]2N2C(=O)CN(Cc3ccc(Cl)cc3)C(=O)[C@@]12C,"inconclusive: 18.5 µM [inhibitor, single point]"
11,O=C(CNC(=O)c1cccc(-n2cnnn2)c1)Nc1ccc(F)c(F)c1,inactive
12,Cc1c(C(=O)OCc2ccc(F)cc2)sc2nc3n(c(=O)c12)CCC3,inactive
13,CCOC(=O)C1=C(CSc2nc(CC)c(C)cc2C#N)OC(N)=C(C#N)C1c1ccc(OC)cc1 (configuration not stated),"inconclusive: 18.5 µM [inhibitor, single point]"
14,CCCCc1nnc(NC(=O)CCc2ccccc2)s1,"inconclusive: 18.5 µM [inhibitor, single point]"
15,CCOc1ccc(C(=O)N[C@H](C(=O)Nc2ccccc2OC)C(C)C)cc1,"inconclusive: 10.4 µM [inhibitor, single point]"
16,Fc1ccccc1OCCn1c(=S)[nH]c2ccccc21,"inconclusive: 18.5 µM [inhibitor, single point]"
17,Cc1c(NC(=O)C(C)Sc2nc3ccccc3c(=O)n2CCO)c(=O)n(-c2ccccc2)n1C (configuration not stated),inactive
18,CN(C)CCCN(C(=O)/C=C/c1cccs1)c1nc2c(F)cccc2s1,"inconclusive: 0.0104 µM [inhibitor, full curve, poor fit]"
19,S=c1[nH]nc(CCCc2n[nH]c(=S)o2)o1,inactive
20,CCCCN(C(=O)c1ccc(-c2ccc(Cl)cc2)o1)c1c(N)n(CC(C)C)c(=O)[nH]c1=O,"inconclusive: 18.5 µM [inhibitor, single point]"
21,COc1ccc(C(C)(C)NC(=O)C2CCC(=O)N(C3CCCC3)C2)cc1OC (configuration not stated),"inconclusive: 13.1 µM [inhibitor, single point]"

# Grouped by structure: the entries above containing a COOH group.
row,Structure (SMILES),Potency
15,O=C(/C=C/c1ccco1)Nc1ccccc1C(=O)O,"inconclusive: 0.0037 µM [inhibitor, full curve, poor fit]"
8,CC(=O)c1ccc(NC(=O)C2CCC(C)(C(=O)O)C2(C)C)cc1 (configuration not stated),"inconclusive: 18.5 µM [inhibitor, single point]"
